Primary screen of a compound library

Chains of the proteins cited; added tags and fusions are not shown.
UniProt E9BF75, entry or part of it: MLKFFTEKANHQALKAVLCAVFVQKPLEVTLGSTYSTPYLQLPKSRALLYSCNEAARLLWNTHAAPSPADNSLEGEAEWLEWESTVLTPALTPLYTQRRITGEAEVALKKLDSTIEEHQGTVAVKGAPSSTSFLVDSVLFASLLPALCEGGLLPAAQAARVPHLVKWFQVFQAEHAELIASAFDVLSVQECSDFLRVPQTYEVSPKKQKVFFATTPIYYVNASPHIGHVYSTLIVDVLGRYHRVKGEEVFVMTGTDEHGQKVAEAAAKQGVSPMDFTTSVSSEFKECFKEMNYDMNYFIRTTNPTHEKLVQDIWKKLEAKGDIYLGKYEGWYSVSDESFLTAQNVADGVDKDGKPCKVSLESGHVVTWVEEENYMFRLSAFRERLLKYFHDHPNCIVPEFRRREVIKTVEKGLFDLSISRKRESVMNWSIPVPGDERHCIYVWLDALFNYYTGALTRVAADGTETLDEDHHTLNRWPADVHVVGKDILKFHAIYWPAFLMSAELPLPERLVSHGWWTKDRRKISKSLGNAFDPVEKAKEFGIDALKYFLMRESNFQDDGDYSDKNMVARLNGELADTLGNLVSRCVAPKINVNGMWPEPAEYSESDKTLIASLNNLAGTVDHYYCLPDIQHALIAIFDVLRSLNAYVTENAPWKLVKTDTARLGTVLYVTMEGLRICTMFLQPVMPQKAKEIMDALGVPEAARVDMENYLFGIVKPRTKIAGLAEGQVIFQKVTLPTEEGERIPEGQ

All values are in %. The record does not define 0% and 100%; most values in the screen are far below 50% and negative numbers occur (in some assays of this library far below -100). The compounds are a random part of those screened. A dash means the value is not listed here; it may have been measured.

LdMetRS: 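Primary screen of methionyl-tRNA synthetase; the read-out is not stated. Target: Methionyl-tRNA synthetase (putative), Leishmania donovani (UniProt E9BF75). The test concentration is not given. Values are per cent inhibition. About 68,000 compounds were tested under these conditions; 0.035% (about 24) showed 50% or more at least once.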
Mtb heat-shock: 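Assay on Mycobacterium tuberculosis, filed only as a heat shock assay from Cornell; the read-out is not stated. The concentration is filed as 10 mM, unlikely as a test dose, so the dose is not known. Direction is inferred from retests: higher values go with stronger inhibition. Size under these conditions: about 69,000 compounds, about 930 of them at 50% or above in at least one test.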

CC(=O)NCc1ccc(-c2ccccc2C(=O)O)cn1 gave LdMetRS: 22.33%; Mtb heat-shock: -3.643%.
Cc1cc(Cl)c(C)c(S(=O)(=O)N2CCN(Cc3ccccn3)CC2)c1Cl gave LdMetRS: 8.05%; Mtb heat-shock: -19.25%.
O=C(NC1CCCC1)N1C[C@H]2CN(c3ccccn3)C[C@@]2(C(=O)O)C1 gave LdMetRS: 12.99%.
FC1(F)CCN(Cc2cccnc2)CC12CCN(c1ccccn1)C2 (stereo unspecified) gave LdMetRS: 14.48%.
CC1COC2(CCN(C(=O)Cc3ccncc3)CC2)C1 (stereo unspecified) gave LdMetRS: 10.56%.
[H][C@@]12COC[C@]1([H])[C@@H](OC)CN2C(=O)c1ccc2c(c1)OCO2 gave Mtb heat-shock: -15.73%.
Cc1ccc(-c2nnc(CCC(=O)NCc3cn(C)nc3C)o2)s1 gave LdMetRS: 12.78%; Mtb heat-shock: 5.89%.
Cc1ccc(CN2Cc3ccnn3CC(C(=O)NCC3CC3)C2)o1 (stereo unspecified) gave LdMetRS: 4.658%.
O=C(NCc1cnc2n1CCN(Cc1nccs1)CC2)C1CCC1 gave LdMetRS: 14.72%.
Cc1nc(CN2CCO[C@@H]3CN(Cc4nccs4)C[C@@H]3C2)cs1 gave LdMetRS: 7.843%.
[H][C@]12CCN(C(=O)NC3CCCC3)CC[C@@]1([H])S(=O)(=O)N(CC)C2 gave Mtb heat-shock: -17.88%.
Cc1nc(NCc2ccccn2)c2c(n1)c(C)nn2C gave LdMetRS: 11.17%; Mtb heat-shock: -8.169%.
[H][C@]12CNC[C@@]1(C(=O)NCCCc1ccccc1)CN(S(C)(=O)=O)C2 gave Mtb heat-shock: -26.1%.
Cc1nc(C)n(C2CCCN(C(=O)c3nc(C)n4ccccc34)C2)n1 (stereo unspecified) gave LdMetRS: 8.591%; Mtb heat-shock: 13.45%.
CCNc1nc(C)c(C(=O)N(C)Cc2noc(C)n2)s1 gave LdMetRS: 3.733%; Mtb heat-shock: -12.74%.
[H][C@@]12CS(=O)(=O)C[C@]1([H])N(Cc1ccc(C)c(C)c1)CCN2CC1CC1 gave Mtb heat-shock: 6.322%.
CCN(CCCNC(=O)c1ccc(C)[nH]c1=O)S(C)(=O)=O gave Mtb heat-shock: -12.68%.
Cn1cc(CN2CCCn3cnc(CN4CCCC4=O)c3C2)cn1 gave LdMetRS: 11.3%; Mtb heat-shock: 11.13%.
Cc1cccc(CN2CCC3(CC2)CN(c2cnn(C)c2)C(=O)CO3)n1 gave LdMetRS: 8.934%.
Cc1ccccc1-n1cc(-c2ccnc(N3CCCC(CN)C3)n2)cn1 (stereo unspecified) gave LdMetRS: 21.67%; Mtb heat-shock: 6.089%.
CCCNC(=O)c1cc(C2CCCN(Cc3ccccn3)C2)no1 (stereo unspecified) gave LdMetRS: 5.806%; Mtb heat-shock: 5.491%.
Cc1cccc(-c2ncc(CNC(C)Cc3ccncc3)cn2)c1 (stereo unspecified) gave LdMetRS: 6.969%; Mtb heat-shock: 9.622%.
CC(C)CN1C[C@@H]2CN(C(=O)[C@H]3CCCO3)C[C@@H]2C1=O gave LdMetRS: 9.764%.
CC(Cn1cncn1)NC(=O)Nc1ccc(COC2CCCC2)cc1 (stereo unspecified) gave LdMetRS: 13.92%; Mtb heat-shock: -13.03%.
c1ccc(CNc2cc(C3CCCNC3)ccn2)nc1 (stereo unspecified) gave LdMetRS: 4.361%.
CCCc1n[nH]c(C2CN(CC(=O)N(C)Cc3ccco3)CCO2)n1 (stereo unspecified) gave Mtb heat-shock: -3.439%.
CN(C)CCO[C@@H]1CC[C@H]2[C@H]1OCCN2C(=O)c1ccccc1F gave LdMetRS: 8.629%.
CC(=O)NCC1CCN(C(=O)NCCOc2ccc3c(c2)CCC3)CC1 gave LdMetRS: 17.71%; Mtb heat-shock: 7.55%.
O=C(CSc1nnc[nH]1)NCc1cccs1 gave LdMetRS: 8.333%; Mtb heat-shock: 13.75%.
Br.Cc1cc(C)c(N(CC(O)CNCc2ccccc2)S(C)(=O)=O)c(C)c1 (stereo unspecified) gave Mtb heat-shock: 3.921%.
O=C(O)C(F)(F)F.O=C(c1ccncc1)N1CCCC2(COCCN(c3ccccc3)C2)C1 (stereo unspecified) gave Mtb heat-shock: 8.798%.
COc1nn(C)c2c1CCCN(C(=O)COc1ccccc1)C2 gave LdMetRS: 8.982%; Mtb heat-shock: -12.19%.
Cc1nc(CN2CCCC(NCc3c(C)nc4sccn34)C2)no1 (stereo unspecified) gave LdMetRS: 5.263%; Mtb heat-shock: 9.376%.

Once more, the final 3:

| Compound | LdMetRS | Mtb heat-shock |
|---|---|---|
| `O=C(O)C(F)(F)F.O=C(c1ccncc1)N1CCCC2(COCCN(c3ccccc3)C2)C1` (stereo unspecified) | - | 8.798 |
| `COc1nn(C)c2c1CCCN(C(=O)COc1ccccc1)C2` | 8.982 | -12.19 |
| `Cc1nc(CN2CCCC(NCc3c(C)nc4sccn34)C2)no1` (stereo unspecified) | 5.263 | 9.376 |

Data taken from ChEMBL document CHEMBL3988442, “University of Dundee, Small-Polar-MMV Screening Library” (2021).